Source: article PMC5829641
Construct, isoform or probe ends are uncertain for at least one entry. Where cells or extracts were used, other partners may take part.

The chains behind the UniProt entries cited, without tags or fusion partners.
UniProt P08047, whole entry: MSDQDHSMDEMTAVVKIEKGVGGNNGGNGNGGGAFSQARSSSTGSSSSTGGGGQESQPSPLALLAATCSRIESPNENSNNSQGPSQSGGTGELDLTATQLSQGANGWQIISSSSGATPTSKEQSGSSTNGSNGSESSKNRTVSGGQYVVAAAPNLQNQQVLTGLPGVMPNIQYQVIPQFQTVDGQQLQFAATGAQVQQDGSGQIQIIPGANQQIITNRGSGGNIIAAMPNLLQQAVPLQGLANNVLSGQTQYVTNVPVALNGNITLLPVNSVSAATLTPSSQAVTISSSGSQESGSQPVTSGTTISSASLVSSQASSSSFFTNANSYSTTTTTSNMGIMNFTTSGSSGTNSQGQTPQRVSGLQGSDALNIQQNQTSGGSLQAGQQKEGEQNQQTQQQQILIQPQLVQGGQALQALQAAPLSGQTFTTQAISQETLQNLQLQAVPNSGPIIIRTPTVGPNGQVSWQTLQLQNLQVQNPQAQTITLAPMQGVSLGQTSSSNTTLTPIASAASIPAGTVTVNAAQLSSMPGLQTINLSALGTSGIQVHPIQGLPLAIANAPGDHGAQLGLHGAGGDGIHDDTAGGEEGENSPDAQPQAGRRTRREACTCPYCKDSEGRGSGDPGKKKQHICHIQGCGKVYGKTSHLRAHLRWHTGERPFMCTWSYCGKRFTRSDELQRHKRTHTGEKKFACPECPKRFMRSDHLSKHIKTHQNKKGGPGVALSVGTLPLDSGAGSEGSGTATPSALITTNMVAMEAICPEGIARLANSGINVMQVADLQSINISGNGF

Target: Sp1 (TIG-1 nuclear extract) (Homo sapiens (TIG-1 normal fibroblasts)) (UniProt P08047)
Experiment: competition with a labelled probe
Settings: unlabeled competitor abolishes binding to XRCC1 probe, protein in an extract

Sequence: ATTCGATCGGGGCGGGGCGAGC (double strand) [Sp1 consensus competitor]
- binding result: binds
